According to patent publication US6160020A, “Alkali metal and alkaline-earth metal salts of acetaminophen” (priority 1998, dated 2000):
Where a name gives a salt, the structure may show the parent alone. Some compounds share one wording; it may come from a single statement.

How the values were obtained:
[1] = relative to acetaminophen; cited from earlier work
[2] = taste of acetaminophen salts; settings: for bitterness: relative to conventional free acid form of acetaminophen

In the case of `CC(=O)Nc1ccc(OC(=O)CN)cc1` [APG, p-acetamidophenyl glycinate], the bitterness of taste [1] is given as “less bitter taste than acetaminophen”.

For `CC(=O)Nc1ccc(OC(=O)CC(N)C(=O)O)cc1` (stereo not drawn) [BAPA, β-p-acetamidophenyl aspartate], the bitterness of taste [1] is listed as “less bitter taste than acetaminophen”.

For `CC(=O)Nc1ccc(OC(=O)C(N)CC(=O)O)cc1` (stereo not drawn) [AAPA, α-p-acetamidophenyl aspartate], the bitterness of taste [1] is given as “less bitter taste than acetaminophen”.

In the case of `CC(=O)Nc1ccc(O)cc1` [Sodium Salt, acetaminophen sodium], the taste [2] was “somewhat salty” and the bitterness [2] was “not to have the bitter properties of the conventional free acid form of acetaminophen”.

For `CC(=O)Nc1ccc(O)cc1` [Calcium Salt, acetaminophen calcium], the taste [2] was “almost tasteless” and the bitterness [2] was “not to have the bitter properties of the conventional free acid form of acetaminophen”.
